These are yes or no findings as the source states them, for the method shown. Binding seen in cells or lysates may run through a third protein. A yes stands for co-enrichment or nearness to the bait. Other partners may have been found. Sequences can lack the tags named with a protein.
Columns and labels:
[1] = target: T1, C9ORF78^R41A with C-terminal 3xFlag-His6-Biotin-His6 tag (human) (UniProt Q9NZ63); experiment: affinity purification with mass spectrometry; Flag-IP (Flag M2 affinity gel) from 500 ug nuclear extract of Flp-In T-REx 293 stable cells, IP buffer 150 mM NaCl with benzonase, eluted with 3xFlag peptide; label-free LC-MS against control IP of unmodified cells
T1 sequence: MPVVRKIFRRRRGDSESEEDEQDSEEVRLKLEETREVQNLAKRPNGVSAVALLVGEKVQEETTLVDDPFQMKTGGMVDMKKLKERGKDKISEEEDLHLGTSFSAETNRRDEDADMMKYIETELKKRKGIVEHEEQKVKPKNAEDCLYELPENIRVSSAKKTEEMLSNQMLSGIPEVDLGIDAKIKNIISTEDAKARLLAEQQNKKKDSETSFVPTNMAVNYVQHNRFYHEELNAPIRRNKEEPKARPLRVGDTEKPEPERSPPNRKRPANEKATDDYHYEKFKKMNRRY

[2] = target: T2, C9ORF78 with C-terminal 3xFlag-His6-Biotin-His6 tag (human) (UniProt Q9NZ63); experiment: as above
T2 sequence: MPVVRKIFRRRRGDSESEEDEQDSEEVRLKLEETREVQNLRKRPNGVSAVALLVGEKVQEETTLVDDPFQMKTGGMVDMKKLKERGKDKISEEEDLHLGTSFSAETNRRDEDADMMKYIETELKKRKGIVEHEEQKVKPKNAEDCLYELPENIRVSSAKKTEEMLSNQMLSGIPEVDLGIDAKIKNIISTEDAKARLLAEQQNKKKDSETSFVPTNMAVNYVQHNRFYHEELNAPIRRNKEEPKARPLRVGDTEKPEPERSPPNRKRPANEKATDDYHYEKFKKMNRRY

B1: aquarius (AQR) (protein, UniProt O60306 1-1485)
chain: MAAPAQPKKIVAPTVSQINAEFVTQLACKYWAPHIKKKSPFDIKVIEDIYEKEIVKSRFAIRKIMLLEFSQYLENYLWMNYSPEVSSKAYLMSICCMVNEKFRENVPAWEIFKKKPDHFPFFFKHILKAALAETDGEFSLHEQTVLLLFLDHCFNSLEVDLIRSQVQQLISLPMWMGLQLARLELELKKTPKLRKFWNLIKKNDEKMDPEAREQAYQERRFLSQLIQKFISVLKSVPLSEPVTMDKVHYCERFIELMIDLEALLPTRRWFNTILDDSHLLVHCYLSNLVRREEDGHLFSQLLDMLKFYTGFEINDQTGNALTENEMTTIHYDRITSLQRAAFAHFPELYDFALSNVAEVDTRESLVKFFGPLSSNTLHQVASYLCLLPTLPKNEDTTFDKEFLLELLVSRHERRISQIQQLNQMPLYPTEKIIWDENIVPTEYYSGEGCLALPKLNLQFLTLHDYLLRNFNLFRLESTYEIRQDIEDSVSRMKPWQSEYGGVVFGGWARMAQPIVAFTVVEVAKPNIGENWPTRVRADVTINLNVRDHIKDEWEGLRKHDVCFLITVRPTKPYGTKFDRRRPFIEQVGLVYVRGCEIQGMLDDKGRVIEDGPEPRPNLRGESRTFRVFLDPNQYQQDMTNTIQNGAEDVYETFNIIMRRKPKENNFKAVLETIRNLMNTDCVVPDWLHDIILGYGDPSSAHYSKMPNQIATLDFNDTFLSIEHLKASFPGHNVKVTVEDPALQIPPFRITFPVRSGKGKKRKDADVEDEDTEEAKTLIVEPHVIPNRGPYPYNQPKRNTIQFTHTQIEAIRAGMQPGLTMVVGPPGTGKTDVAVQIISNIYHNFPEQRTLIVTHSNQALNQLFEKIMALDIDERHLLRLGHGEEELETEKDFSRYGRVNYVLARRIELLEEVKRLQKSLGVPGDASYTCETAGYFFLYQVMSRWEEYISKVKNKGSTLPDVTEVSTFFPFHEYFANAPQPIFKGRSYEEDMEIAEGCFRHIKKIFTQLEEFRASELLRSGLDRSKYLLVKEAKIIAMTCTHAALKRHDLVKLGFKYDNILMEEAAQILEIETFIPLLLQNPQDGFSRLKRWIMIGDHHQLPPVIKNMAFQKYSNMEQSLFTRFVRVGVPTVDLDAQGRARASLCNLYNWRYKNLGNLPHVQLLPEFSTANAGLLYDFQLINVEDFQGVGESEPNPYFYQNLGEAEYVVALFMYMCLLGYPADKISILTTYNGQKHLIRDIINRRCGNNPLIGRPNKVTTVDRFQGQQNDYILLSLVRTRAVGHLRDVRRLVVAMSRARLGLYIFARVSLFQNCFELTPAFSQLTARPLHLHIIPTEPFPTTRKNGERPSHEVQIIKNMPQMANFVYNMYMHLIQTTHHYHQTLLQLPPAMVEEGEEVQNQETELETEEEAMTVQADIIPSPTDTSCRQETPAFQTDTTPSETGATSTPEAIPALSETTPTVVGAVSAPAEANTPQDATSAPEETK
With B1 the binding [1] was “binds” and the binding [2] was “binds”.

B2: PRPF22 (DHX8) (enzyme, UniProt Q14562 1-1220)
chain: MAVAVAMAGALIGSEPGPAEELAKLEYLSLVSKVCTELDNHLGINDKDLAEFVISLAEKNTTFDTFKASLVKNGAEFTDSLISNLLRLIQTMRPPAKPSTSKDPVVKPKTEKEKLKELFPVLCQPDNPSVRTMLDEDDVKVAVDVLKELEALMPSAAGQEKQRDAEHRDRTKKKKRSRSRDRNRDRDRDRERNRDRDHKRRHRSRSRSRSRTRERNKVKSRYRSRSRSQSPPKDRKDRDKYGERNLDRWRDKHVDRPPPEEPTIGDIYNGKVTSIMQFGCFVQLEGLRKRWEGLVHISELRREGRVANVADVVSKGQRVKVKVLSFTGTKTSLSMKDVDQETGEDLNPNRRRNLVGETNEETSMRNPDRPTHLSLVSAPEVEDDSLERKRLTRISDPEKWEIKQMIAANVLSKEEFPDFDEETGILPKVDDEEDEDLEIELVEEEPPFLRGHTKQSMDMSPIKIVKNPDGSLSQAAMMQSALAKERRELKQAQREAEMDSIPMGLNKHWVDPLPDAEGRQIAANMRGIGMMPNDIPEWKKHAFGGNKASYGKKTQMSILEQRESLPIYKLKEQLVQAVHDNQILIVIGETGSGKTTQITQYLAEAGYTSRGKIGCTQPRRVAAMSVAKRVSEEFGCCLGQEVGYTIRFEDCTSPETVIKYMTDGMLLRECLIDPDLTQYAIIMLDEAHERTIHTDVLFGLLKKTVQKRQDMKLIVTSATLDAVKFSQYFYEAPIFTIPGRTYPVEILYTKEPETDYLDASLITVMQIHLTEPPGDILVFLTGQEEIDTACEILYERMKSLGPDVPELIILPVYSALPSEMQTRIFDPAPPGSRKVVIATNIAETSLTIDGIYYVVDPGFVKQKVYNSKTGIDQLVVTPISQAQAKQRAGRAGRTGPGKCYRLYTERAYRDEMLTTNVPEIQRTNLASTVLSLKAMGINDLLSFDFMDAPPMETLITAMEQLYTLGALDDEGLLTRLGRRMAEFPLEPMLCKMLIMSVHLGCSEEMLTIVSMLSVQNVFYRPKDKQALADQKKAKFHQTEGDHLTLLAVYNSWKNNKFSNPWCYENFIQARSLRRAQDIRKQMLGIMDRHKLDVVSCGKSTVRVQKAICSGFFRNAAKKDPQEGYRTLIDQQVVYIHPSSALFNRQPEWVVYHELVLTTKEYMREVTTIDPRWLVEFAPAFFKVSDPTKLSKQKKQQRLEPLYNRYEEPNAWRISRAFRRR
With B2 the binding [1] was “binds” and the binding [2] was “binds”.
